These are yes or no findings as the source states them, for the method shown. In cells and extracts the contact can be indirect. These calls come from enrichment with a bait or labelling near it, and not all partners need be listed. Where a sequence is shown, tags or fusion partners need not be part of it.

Chains of the proteins cited; added tags and fusions are not shown.
UniProt Q8TD16: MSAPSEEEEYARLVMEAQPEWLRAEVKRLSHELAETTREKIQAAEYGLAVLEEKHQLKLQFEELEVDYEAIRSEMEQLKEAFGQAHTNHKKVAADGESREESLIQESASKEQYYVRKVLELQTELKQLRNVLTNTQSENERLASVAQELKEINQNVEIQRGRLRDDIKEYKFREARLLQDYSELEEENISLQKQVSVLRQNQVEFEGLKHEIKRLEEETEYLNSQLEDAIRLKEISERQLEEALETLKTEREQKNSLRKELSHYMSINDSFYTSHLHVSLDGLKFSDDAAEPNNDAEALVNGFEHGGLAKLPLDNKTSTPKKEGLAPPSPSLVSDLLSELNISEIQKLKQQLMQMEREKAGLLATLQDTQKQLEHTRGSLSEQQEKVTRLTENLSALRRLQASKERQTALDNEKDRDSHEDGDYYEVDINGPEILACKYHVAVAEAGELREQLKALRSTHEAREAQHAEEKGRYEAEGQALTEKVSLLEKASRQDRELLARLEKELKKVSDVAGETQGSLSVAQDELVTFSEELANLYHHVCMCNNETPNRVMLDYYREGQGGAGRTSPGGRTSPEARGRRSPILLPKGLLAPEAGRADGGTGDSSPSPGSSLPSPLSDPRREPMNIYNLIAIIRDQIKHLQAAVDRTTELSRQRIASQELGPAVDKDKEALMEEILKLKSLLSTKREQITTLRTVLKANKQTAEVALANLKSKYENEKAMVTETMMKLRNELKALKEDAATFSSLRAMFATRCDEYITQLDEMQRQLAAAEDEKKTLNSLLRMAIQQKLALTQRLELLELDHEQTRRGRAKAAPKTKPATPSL

Our source for the binding values is PMC12229497, “The intracellular bacterium Orientia tsutsugamushi uses the autotransporter ScaC to activate BICD adaptors for dynein-based motility” (Nature Communications, 2025).

The target in the test is T1, GFP-ScaC (passenger domain of ScaC, residues 33–223, N-terminal eGFP) (Orientia tsutsugamushi) (UniProt I6Z768).
T1 sequence: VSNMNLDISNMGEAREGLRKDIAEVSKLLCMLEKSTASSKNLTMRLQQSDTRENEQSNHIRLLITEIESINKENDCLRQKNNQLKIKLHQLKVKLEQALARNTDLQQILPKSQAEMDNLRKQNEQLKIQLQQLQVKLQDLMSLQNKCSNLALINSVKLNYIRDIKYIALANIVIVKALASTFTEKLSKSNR
Kind of test: affinity purification with mass spectrometry; GFP-trap magnetic beads on lysates of HeLa Flp-In cells expressing GFP-ScaC (GFP as control); 10 mM Tris pH 7.5, 150 mM NaCl, 0.5 mM EDTA; on-bead trypsin digest, LC-MS/MS; n = 3.

On to “BICD2 (human, endogenous) (from UniProt Q8TD16 1-824)”, for which the binding entry is recorded as “binds”.

B1: BICD1 (human, endogenous) (protein, UniProt Q96G01 1-975)
chain: MAAEEVLQTVDHYKTEIERLTKELTETTHEKIQAAEYGLVVLEEKLTLKQQYDELEAEYDSLKQELEQLKEAFGQSFSIHRKVAEDGETREETLLQESASKEAYYLGKILEMQNELKQSRAVVTNVQAENERLTAVVQDLKENNEMVELQRIRMKDEIREYKFREARLLQDYTELEEENITLQKLVSTLKQNQVEYEGLKHEIKRFEEETVLLNSQLEDAIRLKEIAEHQLEEALETLKNEREQKNNLRKELSQYISLNDNHISISVDGLKFAEDGSEPNNDDKMNGHIHGPLVKLNGDYRTPTLRKGESLNPVSDLFSELNISEIQKLKQQLMQVEREKAILLANLQESQTQLEHTKGALTEQHERVHRLTEHVNAMRGLQSSKELKAELDGEKGRDSGEEAHDYEVDINGLEILECKYRVAVTEVIDLKAEIKALKEKYNKSVENYTDEKAKYESKIQMYDEQVTSLEKTTKESGEKMAHMEKELQKMTSIANENHSTLNTAQDELVTFSEELAQLYHHVCLCNNETPNRVMLDYYRQSRVTRSGSLKGPDDPRGLLSPRLARRGVSSPVETRTSSEPVAKESTEASKEPSPTKTPTISPVITAPPSSPVLDTSDIRKEPMNIYNLNAIIRDQIKHLQKAVDRSLQLSRQRAAARELAPMIDKDKEALMEEILKLKSLLSTKREQIATLRAVLKANKQTAEVALANLKNKYENEKAMVTETMTKLRNELKALKEDAATFSSLRAMFATRCDEYVTQLDEMQRQLAAAEDEKKTLNTLLRMAIQQKLALTQRLEDLEFDHEQSRRSKGKLGKSKIGSPKVSGEASVTVPTIDTYLLHSQGPQTPNIRVSSGTQRKRQFSPSLCDQSRPRTSGASYLQNLLRVPPDPTSTESFLLKGPPSMSEFIQGHRLSKEKRLTVAPPDCQQPAASVPPQCSQLAGRQDCPTVSPDTALPEEQPHSSSQCAPLHCLSKPPHP
For the molecule B1, the binding entry is “binds”.
